Growth estimate data for 79 substances are collected here from the supplement of paper PMC5949888.

Most values lie at the floor of the assay. Slopes are relative: functional sequences can read slightly below zero.

In this data set the test system is Saccharomyces cerevisiae PS128 hsf1 delta, HSF1(1-493) fusion. Nature of the data set: growth estimate (transactivation domain function in HSF1 fusion, heat-shock survival) (a.u. (slope of normalised read count over time)); higher = stronger growth at 37°C, i.e. more transactivation activity. The following applies: library: random library.
With SGAHHITVCSSLIVVILFSR, the growth estimate was less than -0.25.

Consider LSGAPEAELHGI, for which the growth estimate was less than -0.25. The result for FGSARCSCLWQARDLCTGPG reads less than -0.25.

For GSPFWVRAER, the growth estimate was less than -0.25. The result for VMWKSPSIPRRSNRRRTNDS reads less than -0.25; that for GDPLAIVVLWIY, less than -0.25. With SHCRQI, the growth estimate was less than -0.25. As to DDISC, the growth estimate is less than -0.25.

As to PIIVRTWARSHGQEQGERCA, the growth estimate was less than -0.25. In the case of IFP, the growth estimate is less than -0.25. The result for LLTASGEVKV reads less than -0.25; that for RSLSCARRTPQLAREVPFDL, -0.246. The result for DPGIRILE reads less than -0.25; that for QRHGFNTGRE, less than -0.25. The result for QSRNE reads less than -0.25; that for EKERAHFPGKEGYTPECLAA, less than -0.25; that for SHSDRHPKSGSAINESCSCA, less than -0.25. For CMMSFCERVGQYRDIVSVAP, the growth estimate was less than -0.25. The figure for STGTDHVDQCWFIGGEPTCM is 1.75; for APVGQRTCAFCLY it is less than -0.25.

As for TELDVKCQQSRFSR, the growth estimate is less than -0.25. The result for RHVDLVPRAVHYHREGHYDR reads less than -0.25; that for SAGAA, less than -0.25; that for HVRVFFTATMCL, less than -0.25. The result for DNRVNATCSASWSPTAYHLH reads less than -0.25.

RRCIGDNSDRHIASNARQRS: the growth estimate was less than -0.25. The figure for TLQFHAQAWLSNASRAPRTP is less than -0.25. The figure for LDSI is less than -0.25; for EDWG it is less than -0.25; for SRRTKENRYTRMEVM it is less than -0.25. The figure for RYQ is less than -0.25.

Turning to SRAGSTDI, the growth estimate was less than -0.25. The figure for TSI is less than -0.25; for QQTHGGLL it is less than -0.25; for QGPV it is less than -0.25. The result for RLGTGHPPRRIEIWTSSMAP reads less than -0.25; that for FRRAFYADERTLGKGHKLNA, less than -0.25; that for PGAAKCQPTFLFDSPIQ, less than -0.25. The result for YEAPNSSSTSISRGCVINTG reads less than -0.25; that for MLHHGVYMILRVVPEVLFFG, less than -0.25; that for KFIFGPPAPNMSRPPIIKVL, less than -0.25.

Regarding LLETSYEE, the growth estimate was less than -0.25. The result for LRQSGVTSDLHLADTNGRGC reads less than -0.25.

ARLTCEEPFDLLPGICSSNS: the growth estimate was less than -0.25. The result for LYTRWQV reads less than -0.25.

As for APTKVPFRIDQVLNIPRYGA, the growth estimate was less than -0.25. For the substance QGEPSQATTRIRPGHSDASL, the growth estimate is less than -0.25. Regarding CMVCSRVIWA, the growth estimate is less than -0.25.

As to IVISAIIFGLRA, the growth estimate is less than -0.25. As to RLPRDTTNSRLPHRDSTGQV, the growth estimate was less than -0.25.

For the substance PHYWKRSEEHVRAAFEQCFI, the growth estimate is less than -0.25. The figure for ERVFSTYHDGALRPALAYGA is less than -0.25; for NPFWRTGVEQAQTDGGCMHN it is less than -0.25; for QRFSRKGDVQGPRPQAQSPR it is less than -0.25. The result for TILKGGTVLLLKNQYDELRT reads less than -0.25. With TVGGSAQWCEHCSRGCGNIA, the growth estimate is less than -0.25. The result for TGVGVRYR reads less than -0.25; that for KFG, less than -0.25; that for FQFT, less than -0.25. The result for KNNAWPACSTVNCGYRLLAA reads less than -0.25; that for GCCFRRDSYPCEWEYRRVSW, less than -0.25; that for YRLDSYPCWLELCSQRLSST, less than -0.25. The figure for PRSGDICKNRFEGINVRPLK is less than -0.25; for GFSISGRCKSRILICSGRLA it is less than -0.25; for FIGDEVK it is less than -0.25. As for RVSKGVIIGRRLILLSIQTS, the growth estimate is less than -0.25.

KSPCCG: the growth estimate was less than -0.25. The result for MRPSYR reads less than -0.25; that for DNRTLRKTRRRDDVACKPEH, less than -0.25. The figure for AKVGQMFGVSVGRSYGDVEW is less than -0.25; for RGC it is less than -0.25; for TWADACGAG it is less than -0.25. The result for FEPYYHVSRLIAWLRTPASG reads less than -0.25; that for HNVLCS, less than -0.25; that for RFCRWQRRSNSRVHISRAAT, less than -0.25. Turning to VNY, the growth estimate was less than -0.25. The figure for CLQCHYD is less than -0.25.

On to PGGRDMSDAA, for which the growth estimate is less than -0.25. The figure for DNSYSDHRTHFTIARGSVHV is less than -0.25.
